Patent US20220242945A1 (SORRISO PHARMACEUTICALS, published 2022)
Results are given in words; binding and its absence hold for the method and conditions named. Some binding calls cover weakened binding; strength is not graded here.

Chains of the proteins cited; added tags and fusions are not shown. Residues count along the entry.
UniProt P01375, residues 77-233: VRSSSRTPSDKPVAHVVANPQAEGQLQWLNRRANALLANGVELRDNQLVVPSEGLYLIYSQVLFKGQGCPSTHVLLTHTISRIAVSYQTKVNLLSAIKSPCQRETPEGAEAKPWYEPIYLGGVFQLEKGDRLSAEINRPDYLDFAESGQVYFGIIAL

Tests used:
[1] = biological target: T1, human TNFα (human, UniProt P01375 77-233); assay: competition ELISA on coated human TNFα; competitor 2 nM biotinylated adalimumab
T1 construct: also called TNF-alpha

[2] = biological target: T2, recombinant human IL-23 (human, UniProt Q9NPF7 20-189; P29460 23-328); assay: IL-23-IL-23R neutralisation ELISA (sheet title 'IL-23 IL23R ELISA'); trypsin-cleaved construct blocks binding of IL-23 to IL-23R; A450
T2 construct: Heterodimer of p19 and p40; also called hIL-23; interleukin-23; not shown: single C-terminal 6xHis tag
T2 sequence 1: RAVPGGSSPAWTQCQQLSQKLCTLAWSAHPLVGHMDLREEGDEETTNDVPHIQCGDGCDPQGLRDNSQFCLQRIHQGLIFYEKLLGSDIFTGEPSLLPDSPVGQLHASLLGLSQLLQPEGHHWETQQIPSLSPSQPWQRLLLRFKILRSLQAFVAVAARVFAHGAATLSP
T2 sequence 2: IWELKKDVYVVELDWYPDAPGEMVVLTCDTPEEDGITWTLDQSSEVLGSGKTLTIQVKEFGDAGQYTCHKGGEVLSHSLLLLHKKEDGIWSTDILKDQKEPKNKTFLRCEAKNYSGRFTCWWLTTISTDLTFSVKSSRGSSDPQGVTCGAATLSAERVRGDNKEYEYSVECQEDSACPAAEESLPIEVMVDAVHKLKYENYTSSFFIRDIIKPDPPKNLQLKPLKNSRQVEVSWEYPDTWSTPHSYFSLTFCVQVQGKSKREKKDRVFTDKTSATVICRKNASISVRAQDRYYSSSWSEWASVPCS

[3] = biological target: T1, human TNFα; assay: competition ELISA on plate-coated human TNFα; competitor 2 nM biotinylated adalimumab, detected with ExtrAvidin-HRP, A450
Experimental: ELISA plates were coated with 100 ng/mL human TNFα in 250 μg/mL bovine serum albumin (BSA) in phosphate buffered saline (1×PBS) and blocked with 1% BSA in 1× PBS. […] Otherwise 1% BSA was used as an assay diluent.

- binding [1]: binds
- binding [2]: binds
- binding [3]: binds
B1: FA1K trypsin (protein, not shown: small tags and cut ends)
VHH 1: DVQLVESGGGLVQPGGSLKLSCAASGFDFSSHWMYWVRQAPGKELEWLSEINTNGLITHYGDSVKGRFTVSRNNAANKMYLELTRLEPEDTALYYCARNQHGLNKGQGTQVTVSS
VHH 2: EVQLVESGGGQVQPGGSLSLSCESSVSIWSFKVMGWFRQVPGKQRELVATITTGGSPDYSDSVKGRFTISRDYDKRTLYLQMNSLKPEDTAVYYCAGRLWAHITSSGHDVWGQGTQVTVSS
